These are yes or no findings as the source states them, for the method shown. In cells and extracts the contact can be indirect. Some binding calls cover weakened binding; strength is not graded here. For part of these data: Where a sequence is shown, tags or fusion partners need not be part of it.
T1: O-GlcNAcase (OGA), full length, SFB-tagged (human) (UniProt O60502)
T1 sequence: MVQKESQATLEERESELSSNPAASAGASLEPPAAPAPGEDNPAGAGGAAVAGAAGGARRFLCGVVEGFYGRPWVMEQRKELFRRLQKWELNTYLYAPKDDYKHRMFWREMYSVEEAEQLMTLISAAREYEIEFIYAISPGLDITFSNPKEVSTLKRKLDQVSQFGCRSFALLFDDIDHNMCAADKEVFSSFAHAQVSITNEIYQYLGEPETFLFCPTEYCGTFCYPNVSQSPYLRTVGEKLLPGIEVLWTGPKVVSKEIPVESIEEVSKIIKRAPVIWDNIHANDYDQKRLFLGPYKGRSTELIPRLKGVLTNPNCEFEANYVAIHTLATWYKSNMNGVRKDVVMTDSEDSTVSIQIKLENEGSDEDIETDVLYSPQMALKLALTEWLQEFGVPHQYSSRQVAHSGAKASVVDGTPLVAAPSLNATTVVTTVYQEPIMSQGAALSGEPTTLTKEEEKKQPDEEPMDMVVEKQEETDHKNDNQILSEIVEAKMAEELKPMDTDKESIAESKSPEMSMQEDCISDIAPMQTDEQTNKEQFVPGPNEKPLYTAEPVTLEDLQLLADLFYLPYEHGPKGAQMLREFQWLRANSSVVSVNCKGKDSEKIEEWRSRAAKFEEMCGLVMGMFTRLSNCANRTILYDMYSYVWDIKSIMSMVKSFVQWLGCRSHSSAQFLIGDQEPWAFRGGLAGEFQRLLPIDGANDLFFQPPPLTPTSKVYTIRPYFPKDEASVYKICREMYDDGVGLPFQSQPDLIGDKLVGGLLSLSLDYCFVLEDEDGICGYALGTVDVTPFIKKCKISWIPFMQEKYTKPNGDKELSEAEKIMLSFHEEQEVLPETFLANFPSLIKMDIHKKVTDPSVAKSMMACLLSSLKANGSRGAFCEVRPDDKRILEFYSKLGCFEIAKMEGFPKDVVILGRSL

By UniProt entry, the sequences of proteins in these tests, tags left out.
UniProt P13010: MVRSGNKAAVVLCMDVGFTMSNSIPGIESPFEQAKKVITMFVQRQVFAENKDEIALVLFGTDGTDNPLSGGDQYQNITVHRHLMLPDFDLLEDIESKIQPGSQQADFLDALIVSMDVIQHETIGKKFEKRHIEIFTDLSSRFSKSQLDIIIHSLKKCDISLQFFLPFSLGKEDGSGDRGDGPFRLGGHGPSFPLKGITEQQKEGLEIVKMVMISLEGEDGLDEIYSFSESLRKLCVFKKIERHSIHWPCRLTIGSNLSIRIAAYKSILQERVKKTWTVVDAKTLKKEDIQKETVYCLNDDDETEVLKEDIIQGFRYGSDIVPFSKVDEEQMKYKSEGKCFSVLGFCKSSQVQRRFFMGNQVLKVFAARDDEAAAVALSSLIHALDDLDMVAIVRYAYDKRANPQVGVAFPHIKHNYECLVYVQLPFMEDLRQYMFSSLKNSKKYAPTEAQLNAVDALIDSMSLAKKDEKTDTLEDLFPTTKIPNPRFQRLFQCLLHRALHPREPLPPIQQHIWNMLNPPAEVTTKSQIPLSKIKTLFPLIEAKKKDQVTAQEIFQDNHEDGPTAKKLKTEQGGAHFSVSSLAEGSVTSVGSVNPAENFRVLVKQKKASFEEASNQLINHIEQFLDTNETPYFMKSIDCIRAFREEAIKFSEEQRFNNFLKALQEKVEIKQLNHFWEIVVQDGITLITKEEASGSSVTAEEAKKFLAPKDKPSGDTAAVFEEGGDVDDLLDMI
UniProt P12956: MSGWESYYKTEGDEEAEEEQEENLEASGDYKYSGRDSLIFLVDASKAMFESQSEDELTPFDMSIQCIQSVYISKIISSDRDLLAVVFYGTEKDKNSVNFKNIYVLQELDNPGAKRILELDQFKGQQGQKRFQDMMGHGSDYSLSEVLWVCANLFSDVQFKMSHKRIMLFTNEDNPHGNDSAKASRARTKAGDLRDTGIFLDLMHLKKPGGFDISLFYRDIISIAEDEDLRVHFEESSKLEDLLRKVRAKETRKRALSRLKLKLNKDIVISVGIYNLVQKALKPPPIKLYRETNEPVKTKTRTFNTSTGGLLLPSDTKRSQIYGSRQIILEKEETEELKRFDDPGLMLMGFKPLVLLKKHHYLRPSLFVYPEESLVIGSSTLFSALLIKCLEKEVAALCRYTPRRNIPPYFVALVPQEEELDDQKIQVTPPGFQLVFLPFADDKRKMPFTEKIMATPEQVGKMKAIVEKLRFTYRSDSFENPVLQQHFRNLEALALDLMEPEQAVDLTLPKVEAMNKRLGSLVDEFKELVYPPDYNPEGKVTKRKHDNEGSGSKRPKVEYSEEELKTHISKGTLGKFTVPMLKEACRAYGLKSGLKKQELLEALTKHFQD

T2: full-length human OGA (OGA-FL) expressed in 293T cells (human) (UniProt O60502)
T2 sequence: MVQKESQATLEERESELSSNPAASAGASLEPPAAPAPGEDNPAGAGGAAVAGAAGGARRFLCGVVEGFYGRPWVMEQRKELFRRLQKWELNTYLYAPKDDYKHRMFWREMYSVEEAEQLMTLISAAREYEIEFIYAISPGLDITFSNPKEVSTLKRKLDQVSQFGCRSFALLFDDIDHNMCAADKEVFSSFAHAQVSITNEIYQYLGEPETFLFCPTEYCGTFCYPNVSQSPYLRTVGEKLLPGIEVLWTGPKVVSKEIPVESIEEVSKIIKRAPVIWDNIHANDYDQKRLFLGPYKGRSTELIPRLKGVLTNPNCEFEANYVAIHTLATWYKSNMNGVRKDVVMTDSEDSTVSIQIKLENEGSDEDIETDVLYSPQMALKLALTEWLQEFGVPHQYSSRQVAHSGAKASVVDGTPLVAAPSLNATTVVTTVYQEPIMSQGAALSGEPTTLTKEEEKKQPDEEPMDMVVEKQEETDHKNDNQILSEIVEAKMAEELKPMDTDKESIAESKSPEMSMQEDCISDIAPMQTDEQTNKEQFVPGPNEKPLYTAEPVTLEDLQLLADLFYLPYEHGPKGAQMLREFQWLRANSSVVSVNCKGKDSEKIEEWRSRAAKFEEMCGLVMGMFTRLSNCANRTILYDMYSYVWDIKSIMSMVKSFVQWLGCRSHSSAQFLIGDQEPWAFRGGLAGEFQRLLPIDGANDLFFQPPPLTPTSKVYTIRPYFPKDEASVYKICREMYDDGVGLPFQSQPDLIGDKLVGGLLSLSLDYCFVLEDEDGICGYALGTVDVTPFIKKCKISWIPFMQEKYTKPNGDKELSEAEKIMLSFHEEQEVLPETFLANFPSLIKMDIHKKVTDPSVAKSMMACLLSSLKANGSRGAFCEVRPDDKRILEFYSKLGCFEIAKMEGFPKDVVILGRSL


Experiments:
[1] = biological target: T1, O-GlcNAcase (OGA), full length, SFB-tagged (human); experiment: co-IP; tagged OGA precipitated on streptavidin from lysates of cells treated with mock, OGT inhibitor OSMI-1 or TMG; western blot for NONO, Ku70, Ku80 and FLAG
[2] = biological target: T2, full-length human OGA (OGA-FL) expressed in 293T cells (human); experiment: co-IP; SFB-OGA constructs expressed in 293T cells, with Myc-tagged or endogenous NONO, Ku70, Ku80; lysed with NETN300 buffer; IP and western blot; with or without 10 Gy of IR

| binding [1] | binding [2] | Molecule |
| --- | --- | --- |
| binds |  | Ku80, endogenous (from UniProt P13010 1-732) |
|  | binds | endogenous Ku80 (from UniProt P13010 1-732) |
| binds |  | NONO, endogenous (protein, UniProt Q15233 1-471) MQSNKTFNLEKQNHTPRKHHQHHHQQQHHQQQQQQPPPPPIPANGQQASSQNEGLTIDLKNFRKPGEKTFTQRSRLFVGNLPPDITEEEMRKLFEKYGKAGEVFIHKDKGFGFIRLETRTLAEIAKVELDNMPLRGKQLRVRFACHSASLTVRNLPQYVSNELLEEAFSVFGQVERAVVIVDDRGRPSGKGIVEFSGKPAARKALDRCSEGSFLLTTFPRPVTVEPMDQLDDEEGLPEKLVIKNQQFHKEREQPPRFAQPGSFEYEYAMRWKALIEMEKQQQDQVDRNIKEAREKLEMEMEAARHEHQVMLMRQDLMRRQEELRRMEELHNQEVQKRKQLELRQEEERRRREEEMRRQQEEMMRRQQEGFKGTFPDAREQEIRMGQMAMGGAMGINNRGAMPPAPVPAGTPAPPGPATMMPDGTLGLTPPTTERFGQAATMEGIGAIGGTPPAFNRAAPGAEFAPNKRRRY |

Second part, the molecule before the results:

| Molecule | binding [1] | binding [2] |
| --- | --- | --- |
| Ku70, endogenous (from UniProt P12956 1-609) | binds |  |
| endogenous Ku70 (from UniProt P12956 1-609) |  | binds |
| endogenous NONO (protein, UniProt Q15233 1-471) MQSNKTFNLEKQNHTPRKHHQHHHQQQHHQQQQQQPPPPPIPANGQQASSQNEGLTIDLKNFRKPGEKTFTQRSRLFVGNLPPDITEEEMRKLFEKYGKAGEVFIHKDKGFGFIRLETRTLAEIAKVELDNMPLRGKQLRVRFACHSASLTVRNLPQYVSNELLEEAFSVFGQVERAVVIVDDRGRPSGKGIVEFSGKPAARKALDRCSEGSFLLTTFPRPVTVEPMDQLDDEEGLPEKLVIKNQQFHKEREQPPRFAQPGSFEYEYAMRWKALIEMEKQQQDQVDRNIKEAREKLEMEMEAARHEHQVMLMRQDLMRRQEELRRMEELHNQEVQKRKQLELRQEEERRRREEEMRRQQEEMMRRQQEGFKGTFPDAREQEIRMGQMAMGGAMGINNRGAMPPAPVPAGTPAPPGPATMMPDGTLGLTPPTTERFGQAATMEGIGAIGGTPPAFNRAAPGAEFAPNKRRRY |  | binds |

— paper PMC8209095
